The source of these data is paper PMC12062774.

No constants are given. Whether binding was seen depends on the method and setting. In cells and extracts the contact can be indirect. Binding can be weak; no strength is given. Tags and fused reporters may be left off the sequences shown.

In this test the target is T1, 3-O-sulfotransferase-5 tagged with GFP (3OST5-GFP) (UniProt Q8IZT8).
T1 sequence: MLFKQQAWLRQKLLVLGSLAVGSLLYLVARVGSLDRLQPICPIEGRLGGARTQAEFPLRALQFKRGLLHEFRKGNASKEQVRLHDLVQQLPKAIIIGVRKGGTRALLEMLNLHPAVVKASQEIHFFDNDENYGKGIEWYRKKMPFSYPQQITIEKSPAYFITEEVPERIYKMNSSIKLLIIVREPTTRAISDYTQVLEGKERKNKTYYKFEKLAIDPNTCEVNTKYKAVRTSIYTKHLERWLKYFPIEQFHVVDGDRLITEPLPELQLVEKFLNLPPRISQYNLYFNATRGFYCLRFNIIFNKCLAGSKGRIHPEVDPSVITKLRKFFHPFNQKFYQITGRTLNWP
Description: co-IP; EC-3OST5 cell lysate (IP buffer: 150 mM NaCl, 50 mM Tris-HCl pH 7.5, 1% NP-40, 2 mM EDTA) precipitated with anti-GFP polyclonal antibody on protein G Plus-agarose, 18 h at 4 °C; Western blot with anti-GOLPH3.

With Golgi phosphoprotein 3 (GOLPH3), the binding result is recorded as “binds”.
